{
  "sequences": {"note": "Protein sequences, listed by entry. Tags and fused reporters are not part of them.", "UniProt P34972, whole entry": "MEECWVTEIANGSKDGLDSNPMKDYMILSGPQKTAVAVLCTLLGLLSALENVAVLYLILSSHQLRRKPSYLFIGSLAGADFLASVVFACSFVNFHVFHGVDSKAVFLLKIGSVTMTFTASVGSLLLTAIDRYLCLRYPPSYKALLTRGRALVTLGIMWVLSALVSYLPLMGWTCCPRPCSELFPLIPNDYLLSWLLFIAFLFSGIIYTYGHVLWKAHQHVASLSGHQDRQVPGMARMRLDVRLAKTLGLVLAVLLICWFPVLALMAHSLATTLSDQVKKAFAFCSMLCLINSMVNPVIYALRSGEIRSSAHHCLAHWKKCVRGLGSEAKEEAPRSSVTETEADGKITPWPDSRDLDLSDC", "UniProt P21554, whole entry": "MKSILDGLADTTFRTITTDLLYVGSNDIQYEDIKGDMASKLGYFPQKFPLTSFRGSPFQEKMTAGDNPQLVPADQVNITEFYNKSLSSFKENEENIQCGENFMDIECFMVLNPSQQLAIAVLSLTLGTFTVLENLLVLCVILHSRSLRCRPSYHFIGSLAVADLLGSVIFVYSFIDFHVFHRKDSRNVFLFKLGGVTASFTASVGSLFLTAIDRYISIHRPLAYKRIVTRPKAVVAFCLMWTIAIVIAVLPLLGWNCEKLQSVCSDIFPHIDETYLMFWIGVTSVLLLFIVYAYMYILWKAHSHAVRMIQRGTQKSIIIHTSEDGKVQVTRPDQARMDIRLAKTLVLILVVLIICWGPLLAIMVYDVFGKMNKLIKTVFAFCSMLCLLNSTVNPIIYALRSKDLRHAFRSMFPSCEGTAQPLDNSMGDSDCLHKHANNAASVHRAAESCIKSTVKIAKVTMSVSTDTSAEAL"},
  "source": "patent US20080221097A1",
  "about": "“Imidazopyridine Derivatives as Cannabinoid Receptor Ligands” (priority 2005, published 2008)",
  "format_in_all_cases": "cell-based",
  "key": {"[1]": {"molecular_target": "T1, human cannabinoid CB2 receptor (Homo sapiens, UniProt P34972)", "T1 construct": "expressed in transfected cells; host or cells: Saccharomyces cerevisiae strain MMY23 (cassette integrated at the ura3 locus, GPD promoter)", "experiment": "Cannabinoid CB2 receptor agonist activity, yeast assay", "conditions": "for EMR (equieffective molar ratio) in the CB2 yeast receptor assay: EC50[compound]/EC50[HU210]; for lower EMR for CB2 over CB1 (selectivity): yeast assays, EMR CB1 versus EMR CB2; for pEC50: yeast cells expressing human CB2, averages of a number of experiments, read-out: EC50 at the cloned human cannabinoid CB2 receptor", "method": "The cannabinoid CB2 receptor agonist activity of compounds of formula (I) was determined in accordance with the following experimental method.\nYeast (Saccharomyces cerevisiae) cells expressing the human cannabinoid CB2 receptor were generated by integration of an expression cassette into the ura3 chromosomal locus of yeast strain MMY23. This cassette consisted of DNA sequence encoding the human CB2 receptor flanked by the yeast GPD promoter to the 5′ end of CB2 and a yeast transcriptional terminator sequence to the 3′ end of CB2. MMY23 expresses a yeast/mammalian chimeric G-protein alpha subunit in which the C-terminal 5 amino acids of Gpa1 are replaced with the C-terminal 5 amino acids of human Gαi½ (as described in Brown et al. (2000), Yeast 16:11-22). Cells were grown at 30° C. in liquid Synthetic Complete (SC) yeast media (Guthrie and Fink (1991), Methods in Enzymology, Vol. 194) lacking uracil, tryptophan, adenine and leucine to late logarithmic phase (approximately 6 OD600/ml).\nAgonists were prepared as […] solutions in DMSO. EC50 values (the concentration required to produce 50% maximal response) were estimated using 4 fold dilutions (BiomekFX, Beckman) into DMSO. Agonist solutions in DMSO (1% final assay volume) were transferred into black microtitre plates from Greiner (384-well). Cells were suspended at a density of 0.2 OD600/ml in SC media lacking histidine, uracil, tryptophan, adenine and leucine and supplemented with 10 mM 3-aminotriazole, 0.1M sodium phosphate pH 7.0, and 10 μM fluorescein di-β-D-glucopyranoside (FDGlu). This mixture (50 μl per well) was added to agonist in the assay plates (Multidrop 384, Labsystems). After incubation at 30° C. for 24 hours, fluorescence resulting from degradation of FDGlu to fluorescein due to exoglucanase, an endogenous yeast enzyme produced during agonist-stimulated cell growth, was determined using a fluorescence microtitre plate reader (Tecan Spectrofluor or LJL Analyst excitation wavelength: 485 nm; emission wavelength: 535 nm). Fluorescence was plotted against compound concentration and iteratively curve fitted using a four parameter fit to generate a concentration effect value. Efficacy (Emax) was calculated from the equation\nEmax=Max[compound X]−Min[compound X]/Max[HU210]−Min[HU210]×100%\nwhere Max[compound X] and Min[compound X] are the fitted maximum and minimum respectively from the concentration effect curve for compound X, and Max[HU210] and Min[HU210] are the fitted maximum and minimum respectively from the concentration effect curve for (6aR,10aR)-3-(1,1′-Dimethylheptyl)-6a,7,10,10a-tetrahydro-1-hydroxy-6,6-dimethyl-6H-dibenzo [b,d]pyran-9-methanol (HU210; available from Tocris). Equieffective molar ratio (EMR) values were calculated from the equation\nWhere EC50[compound X] is the EC50 of compound X and EC50[HU210] is the EC50of HU210."}, "[2]": {"molecular_target": "T2, human recombinant CB2 receptors (Homo sapiens, UniProt P34972)", "T2 construct": "expressed in transfected cells", "experiment": "CB2 agonist effects in a reporter gene assay (CHO-K1 CB2 CRE-LUC cells)", "conditions": "inhibition of forskolin response in CHO-K1 CB2 CRE-LUC cells; EC50 divided by EC50 for HU210; averages of a number of experiments"}, "[3]": {"molecular_target": "T3, human cannabinoid CB1 receptor (Homo sapiens, UniProt P21554)", "T3 construct": "expressed in transfected cells; host or cells: Saccharomyces cerevisiae strain MMY23 (cassette integrated at the ura3 locus, GPD promoter)", "experiment": "Cannabinoid CB1 receptor agonist activity, yeast assay", "conditions": "EC50[compound]/EC50[HU210]"}},
  "note": "pEC50: −log10 of the molar value. Some results were stated once for a whole list of compounds, not compound by compound.",
  "data": [
    {"smiles": "Cl.Cn1cnc2c(Nc3cccc(OC(F)(F)F)c3)ncc(C(=O)N3CCOCC3)c21", "note": "[Example 17, 1-Methyl-7-(4-morpholinylcarbonyl)-N-{3-[(trifluoromethyl)oxy]phenyl}-1H-imidazo[4,5-c]pyridin-4-amine hydrochloride salt]", "values": [
      {"measurement": "EMR (equieffective molar ratio) in the CB2 yeast receptor assay", "setting": "[1]", "result": "less than 100"},
      {"measurement": "lower EMR for CB2 over CB1 (selectivity)", "setting": "[1]", "result": "tenfold"},
      {"measurement": "pEC50", "setting": "[1]", "result": "> 6.52"},
      {"measurement": "EMR (equipotent molar ratio) in CB2 reporter gene assay", "setting": "[2]", "result": "less than 30"},
      {"measurement": "EMR (equieffective molar ratio) in the CB1 yeast receptor assay", "setting": "[3]", "result": "greater than 100"}
    ]},
    {"smiles": "Cc1c(Nc2ncc(C(=O)N3CCOCC3)c3c2ncn3C)cccc1C(F)(F)F.Cl", "note": "[Example 20, 1-Methyl-N-[2-methyl-3-(trifluoromethyl)phenyl]-7-(4-morpholinylcarbonyl)-1H-imidazo[4,5-c]pyridin-4-amine hydrochloride salt]", "values": [
      {"measurement": "EMR (equieffective molar ratio) in the CB2 yeast receptor assay", "setting": "[1]", "result": "less than 100"},
      {"measurement": "lower EMR for CB2 over CB1 (selectivity)", "setting": "[1]", "result": "tenfold"},
      {"measurement": "pEC50", "setting": "[1]", "result": "> 6.52"},
      {"measurement": "EMR (equipotent molar ratio) in CB2 reporter gene assay", "setting": "[2]", "result": "less than 30"},
      {"measurement": "EMR (equieffective molar ratio) in the CB1 yeast receptor assay", "setting": "[3]", "result": "greater than 100"}
    ]}
  ]
}
